# Measurements from doi:10.1101/2024.01.24.577116.
# Sequences of proteins named here, by UniProt entry; tags and fusion partners are left off. Residues count along the entry.
# UniProt Q9QY81, residues 27-1886: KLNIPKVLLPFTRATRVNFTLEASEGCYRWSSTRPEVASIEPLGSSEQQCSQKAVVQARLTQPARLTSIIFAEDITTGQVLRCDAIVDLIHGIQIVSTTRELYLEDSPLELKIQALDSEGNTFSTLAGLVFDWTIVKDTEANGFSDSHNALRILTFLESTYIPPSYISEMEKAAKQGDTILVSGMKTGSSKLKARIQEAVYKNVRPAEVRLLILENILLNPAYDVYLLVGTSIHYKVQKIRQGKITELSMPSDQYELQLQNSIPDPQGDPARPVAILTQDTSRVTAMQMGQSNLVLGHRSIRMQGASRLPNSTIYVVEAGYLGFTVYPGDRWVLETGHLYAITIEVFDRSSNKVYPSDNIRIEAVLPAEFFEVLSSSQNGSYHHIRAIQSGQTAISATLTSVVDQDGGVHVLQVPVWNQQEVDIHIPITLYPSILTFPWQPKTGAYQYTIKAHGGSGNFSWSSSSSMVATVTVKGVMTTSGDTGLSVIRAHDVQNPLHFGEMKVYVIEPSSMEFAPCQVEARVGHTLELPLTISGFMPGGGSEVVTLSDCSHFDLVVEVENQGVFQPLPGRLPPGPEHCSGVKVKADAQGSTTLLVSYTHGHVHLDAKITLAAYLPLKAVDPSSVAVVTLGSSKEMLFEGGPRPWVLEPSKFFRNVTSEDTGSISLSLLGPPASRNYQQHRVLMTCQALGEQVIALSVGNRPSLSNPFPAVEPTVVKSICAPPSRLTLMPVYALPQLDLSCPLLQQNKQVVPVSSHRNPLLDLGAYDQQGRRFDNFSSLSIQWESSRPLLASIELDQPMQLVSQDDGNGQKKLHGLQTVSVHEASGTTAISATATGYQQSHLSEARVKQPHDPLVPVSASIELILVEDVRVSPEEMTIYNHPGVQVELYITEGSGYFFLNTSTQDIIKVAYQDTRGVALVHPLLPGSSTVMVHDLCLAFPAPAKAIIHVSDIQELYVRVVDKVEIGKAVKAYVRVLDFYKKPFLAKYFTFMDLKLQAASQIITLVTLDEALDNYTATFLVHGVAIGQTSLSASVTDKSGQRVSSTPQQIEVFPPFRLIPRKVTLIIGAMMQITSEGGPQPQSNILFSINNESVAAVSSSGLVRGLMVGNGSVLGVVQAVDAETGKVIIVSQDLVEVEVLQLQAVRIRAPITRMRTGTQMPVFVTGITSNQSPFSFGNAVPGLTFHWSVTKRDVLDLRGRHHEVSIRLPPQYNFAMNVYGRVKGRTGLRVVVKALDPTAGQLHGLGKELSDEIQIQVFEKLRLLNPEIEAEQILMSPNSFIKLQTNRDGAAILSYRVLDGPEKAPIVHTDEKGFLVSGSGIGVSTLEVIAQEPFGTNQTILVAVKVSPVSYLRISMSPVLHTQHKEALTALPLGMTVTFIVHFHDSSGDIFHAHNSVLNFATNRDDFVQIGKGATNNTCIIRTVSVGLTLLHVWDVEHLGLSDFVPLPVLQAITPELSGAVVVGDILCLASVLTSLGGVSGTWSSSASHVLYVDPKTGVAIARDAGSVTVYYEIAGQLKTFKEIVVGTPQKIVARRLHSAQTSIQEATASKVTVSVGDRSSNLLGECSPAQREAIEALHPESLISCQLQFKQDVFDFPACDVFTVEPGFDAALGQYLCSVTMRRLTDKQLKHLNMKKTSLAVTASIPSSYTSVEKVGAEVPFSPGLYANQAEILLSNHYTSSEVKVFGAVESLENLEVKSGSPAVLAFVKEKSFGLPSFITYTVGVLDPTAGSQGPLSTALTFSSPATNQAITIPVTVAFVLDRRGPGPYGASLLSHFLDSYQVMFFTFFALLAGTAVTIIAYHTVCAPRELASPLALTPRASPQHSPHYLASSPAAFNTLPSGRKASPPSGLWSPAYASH
# Results are given in words; binding and its absence hold for the method and conditions named. Binding seen in cells or lysates may run through a third protein. Some results given as binding are weak or reduced against the parent protein; the word gives no strength.
# Columns and labels:
# [1] = molecular target: NUP210 (in 4T1 cells, proximity ligation assay) (mouse (endogenous in 4T1)) (UniProt Q9QY81); assay: proximity ligation
# [2] = molecular target: Myc-tagged NUP210 (UniProt Q9QY81); assay: co-IP
Binder,binding [1],binding [2]
"endogenous NAT10 (protein, UniProt Q8K224 1-1024) MNRKKVDNRIRILIENGVAERQRSLFVVVGDRGKDQVVILHHMLSKATVKARPSVLWCYKKELGFSSHRKKRMRQLQKKIKSGTLNLKQDDPFELFVAATNIRYCYYNETHKILGNTFGMCVLQDFEALTPNLLARTVETVEGGGLVVILLRTMNSLKQLYTMTMDVHSRYRTEAHQDVVGRFNERFILSLASCKKCLVIDDQLDILPISSHVASIEALPPQAPDENLSPAALELLELKESLQDTQPVGVLVDCCKTLDQAKAVLKFIEGISEKTLRSTVALTAARGRGKSAALGLAIAGAVAFGYSNIFVTSPSPDNLHTLFEFVFKGFDALQYQEHLDYEIVQSLNPEFNKAVIRVNVFREHRQTIQYIHPADAVKLGQAELVVIDEAAAIPLPLVKSLLGPYLVFMASTINGYEGTGRSLSLKLIQQLRQQSAQSQVSTTAENKTTTTARLASARTLHEVSLQESIRYAPGDAVEKWLNDLLCLDCLNITRIVSGCPLPEACELYYVNRDTLFCYHKASEVFLQRLMALYVASHYKNSPNDLQMLSDAPAHHLFCLLPPVPPTQNALPEVLAVVQVCLEGEISRQSILNSLSRGKKASGDLIPWTVSEQFQDPDFGGLSGGRVVRIAVHPDYQGMGYGSRALQLLQMYYEGKFPCLEEKVLETPQEIRTVSSEAVSLLEEVITPRKDLPPLLLKLNERPAERLDYLGVSYGLTPRLLKFWKRAGFVPVYLRQTPNDLTGEHSCIMLKTLADEDEAEQGAWLAAFWKDFRRRFLALLSYQFSTFSPALSLNIIQNRNVAKSALPALGREHLEALFLPYDLKRLEMYSRNMVDYHLIMDLIPAISRLYFLNQLGDLSLSAAQSALLLGIGLQHKSVDQLEKEIELPSGQLMGLFNRIIRKVVKLFNDVQEKAIEEQMVAVKDVVMEPTMKTLSDDLDEAAKEFQEKHKKEVGKLKDMDLSQYVIRGDDEEWNEVLSKAGQNASIVSLKSDKKRKLETKQEPKQSKKLKKRDNNRKDMKLKRKK",binds,binds
"SIPA1 (protein, UniProt P46062 1-1037) MWAGGVGSPRRGMAPAPTDDLFARKLRQPARPPLTPNTFEPRPARGPLLRSGSDAGEVRPPTPASPRARAHSHEDASRPAATPTRLFTDPLALLGLPAEEPEPTFPPVLEPRWFAHYDVQSLLFDWAPRPRGTGSHTEANSGTLAEGQTTTSDLLLGAPGFVSELGGEGELGLGGPISPPVPPALPNAAVSVLEEPQTRTTTYSLEHADLGAGYYRKYFYGKEHQNFFGLDEALGPVAVSLRREEKEGSGGGTLHSYRVIVRTTQLRTLRGTISEDALPPGPPSVSPRKLLEHVAPRLSPTCLRLGSASPKVPRQLLTLDEQVLSFQRKGGILYCRAGQGSEEEMYNNQEAGAAFMQFLTLLGDVVRLKGFESYRAQLDTKTDSTGTHSLYTTYQDHEIMFHVSTMLPYTPNNQQQLLRKRHIGNDIVTIVFQEPGSKPFCPTTIRSHFQHVFLVVRAHAPCTPHTSYRVAVSRTQDTPAFGPALPEGGGPFAANADFRAFLLAKALNGEQAAGHARQFHAMATRTRQQYLQDLATNEVTTTSLDSASRFGLPSLGGRRRATPRSPGADVQAAGALMWGVRAAPGARVAAGAETSGPDDAEVPCLLGISAETLVLVAPRDGRVVFNCACRDVLAWTFSEHQLDLYHGRGEAITLRLDGAPGQAVGEVVARLQLVSRGCETRELALPRDGQGRLGFEVDAEGFITHVERFTFAETTGLRPGARLLRVCGQTLPKLGPETAAQMLRSAPKVCVTVLPPDESGRPRRSFSELYMLSLKEPSRRGGPEPVQDETGKLVILPPTKQLLHFCLKDSSSPPGPGDLTEERTEFLRTHNSLSSGSSLSDEAPVLPNTTPDLLLVTTANPSAPGTDRETPPSQDQSGSPSSHEDTSDSGPELRASILPRTLSLRNSISKIMSEAGSETLEDEWQSISEIASTCNTILESLSREGQPISESGDPKEALKCDSEPEPGSLSEKVSHLESMLWKLQEDLQREKADRAALEEEVRSLRHNNQRLLAESESAATRLLLASKHLGAPTTDLA",binds,binds weakly
